From patent US20220396626A1
Results are given in words; binding and its absence hold for the method and conditions named. Some results given as binding are weak or reduced against the parent protein; the word gives no strength.

T1: human CLL1 on the surface of transfected cells (HEK293-CLL1; HEK-293T membrane proteome array) (human) (UniProt Q5QGZ9)
T1 sequence (looked up): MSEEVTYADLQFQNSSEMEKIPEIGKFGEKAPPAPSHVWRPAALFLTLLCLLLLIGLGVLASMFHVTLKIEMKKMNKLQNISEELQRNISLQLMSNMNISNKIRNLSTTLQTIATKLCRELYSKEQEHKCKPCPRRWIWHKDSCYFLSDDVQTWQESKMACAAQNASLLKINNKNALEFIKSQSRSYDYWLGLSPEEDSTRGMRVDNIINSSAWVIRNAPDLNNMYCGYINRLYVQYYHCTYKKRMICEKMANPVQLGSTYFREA


Tests used:
[1] = target: T1, human CLL1 on the surface of transfected cells (HEK293-CLL1; HEK-293T membrane proteome array) (human); assay: flow cytometry on HEK293 cells overexpressing CLL1
[2] = target: T1, human CLL1 on the surface of transfected cells (HEK293-CLL1; HEK-293T membrane proteome array) (human); assay: flow cytometry on HEK293 cells overexpressing CLL1, 0.01-1 ug/mL antibody
[3] = target: T1, human CLL1 on the surface of transfected cells (HEK293-CLL1; HEK-293T membrane proteome array) (human); assay: flow cytometry on 293T cells transiently transfected with CLL1 (title on the sheet); concentrations 5, 1, 0.2, 0.04, 0.008, unit not printed on the sheet
[4] = target: human CLL1 ECD-His (human CLL1 extracellular domain with His tag) (human) (UniProt Q5QGZ9); assay: BLI (ForteBio), antibody on AHC sensor, 60 nM human CLL1 ECD-His, compared with ch27H4

| binding [1] | binding [2] | binding [3] | binding [4] | Binder |
| --- | --- | --- | --- | --- |
| binds | binds | binds | – | anti-human CLL-1 control antibody 1075.7 (antibody) scFv: ENVLTQSPAIMSASPGEKVTMTCRASSNVISSYVHWYQQRSGASPKLWIYSTSNLASGVPARFSGSGSGTSYSLTISSVEAEDAATYYCQQYSGYPLTFGAGTKLELGGGGSGGGGSGGGGSDIQLQESGPGLVKPSQSLSLTCSVTGYSITSAYYWNWIRQFPGNKLEWMGYISYDGRNNYNPSLKNRISITRDTSKNQFFLKLNSVTTEDTATYYCAKEGDYDVGNYYAMDYWGQGTSVTVSS |
| – | – | – | binds | humanized antibody hz27H4H1L1 (antibody, V domains shown) VH: EVQLVQSGAEVKKPGASVKVSCKASGYTFTGYHMHWVRQAPGQRLEWMGRINPYNGAASHNQKFKDRVTITRDTSASTAYMELSSLRSEDTAVYYCARGWDYDGGYYAMDYWGQGTLVTVSS VL: DIQMTQSPSSLSASVGDRVTITCKSSQSLLYSDNQKNYLAWYQQKPGKAPKLLIYWASTRESGVPSRFSGSGSGTDFTLTISSLQPEDFATYYCQQYYTYPYTFGQGTKLEIK |
| – | – | – | binds | humanized antibody hz27H4H1L2 (antibody, V domains shown) VH: EVQLVQSGAEVKKPGASVKVSCKASGYTFTGYHMHWVRQAPGQRLEWMGRINPYNGAASHNQKFKDRVTITRDTSASTAYMELSSLRSEDTAVYYCARGWDYDGGYYAMDYWGQGTLVTVSS VL: DIVMTQSPLSLPVTPGEPASISCKSSQSLLYSDNQKNYLAWYLQKPGQSPQLLIYWASTRESGVPDRFSGSGSGTDFTLKISRVEAEDVGVYYCQQYYTYPYTFGQGTKLEIK |
